According to PMC12116747:
No constants are given. Whether binding was seen depends on the method and setting. For some of these results: In cells and extracts the contact can be indirect. Some entries that bind do so weakly or less than the wild type. Values belong to the substance of their own block, whether it stands above or below them.

Protein sequences, listed by entry. Tags and fused reporters are not part of them. Lines headed by an entry give the natural chain unless they say otherwise; changes in a name come on top.
UniProt O43809: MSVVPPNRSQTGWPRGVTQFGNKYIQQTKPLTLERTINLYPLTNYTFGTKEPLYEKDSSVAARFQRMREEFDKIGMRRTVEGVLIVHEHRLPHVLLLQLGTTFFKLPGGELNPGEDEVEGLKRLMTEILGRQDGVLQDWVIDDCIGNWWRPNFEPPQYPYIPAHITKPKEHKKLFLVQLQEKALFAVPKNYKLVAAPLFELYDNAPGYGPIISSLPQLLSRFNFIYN
UniProt Q16630: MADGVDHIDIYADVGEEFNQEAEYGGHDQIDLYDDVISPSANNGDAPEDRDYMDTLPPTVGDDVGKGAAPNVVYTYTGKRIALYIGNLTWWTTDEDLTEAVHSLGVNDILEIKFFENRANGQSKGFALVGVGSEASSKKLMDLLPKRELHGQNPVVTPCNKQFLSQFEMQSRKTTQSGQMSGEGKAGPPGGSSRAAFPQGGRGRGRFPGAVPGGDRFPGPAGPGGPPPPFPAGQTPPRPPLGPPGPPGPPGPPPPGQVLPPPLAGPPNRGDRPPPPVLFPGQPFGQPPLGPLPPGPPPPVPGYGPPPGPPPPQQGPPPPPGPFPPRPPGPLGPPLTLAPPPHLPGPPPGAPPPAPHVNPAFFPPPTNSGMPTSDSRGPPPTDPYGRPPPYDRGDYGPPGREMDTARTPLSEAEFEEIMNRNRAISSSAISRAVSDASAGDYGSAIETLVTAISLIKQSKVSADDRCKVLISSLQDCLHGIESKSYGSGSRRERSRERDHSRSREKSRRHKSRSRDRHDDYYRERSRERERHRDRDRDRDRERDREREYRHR
UniProt Q92769: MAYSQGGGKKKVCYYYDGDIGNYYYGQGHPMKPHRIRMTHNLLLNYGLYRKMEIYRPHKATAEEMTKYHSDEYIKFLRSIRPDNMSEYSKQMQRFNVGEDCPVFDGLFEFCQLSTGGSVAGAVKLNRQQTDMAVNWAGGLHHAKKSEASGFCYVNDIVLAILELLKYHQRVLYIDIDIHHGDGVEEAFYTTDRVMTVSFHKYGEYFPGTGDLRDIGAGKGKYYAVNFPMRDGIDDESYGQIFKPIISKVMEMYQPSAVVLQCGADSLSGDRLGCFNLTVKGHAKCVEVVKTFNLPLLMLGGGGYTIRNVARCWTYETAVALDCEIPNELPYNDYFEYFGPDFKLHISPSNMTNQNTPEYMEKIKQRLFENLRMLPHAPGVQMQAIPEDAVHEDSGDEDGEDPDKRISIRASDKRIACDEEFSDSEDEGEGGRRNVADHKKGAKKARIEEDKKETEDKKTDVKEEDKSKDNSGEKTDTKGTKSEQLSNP

Assays:
[1] = biological target: WT NUDT21 (Flag-tagged, expressed in KYSE30 cells) (human) (UniProt O43809); assay: proximity ligation; Duolink PLA in KYSE30 cells with anti-Flag (NUDT21) and anti-CPSF6; cells treated with saline, L-lactate (20 mM) or oxamate (20 mM); nuclear foci, n = 50 cells
[2] = biological target: NUDT21 (in KYSE30 cells, Co-IP of Fig. 4a-e) (human) (UniProt O43809); assay: co-IP; Co-IP in KYSE30 cells; IP lysis buffer, beads overnight at 4 °C, Western blot; cells treated with L-lactate (20 mM), oxamate (20 mM), acetate (10 mM), β-alanine (100 mM), AARS1-HA, HDAC2 siRNA, or transfected with NUDT21 WT, K23R or K56R plasmids
[3] = biological target: NUDT21 K23R mutant (expressed in KYSE30 cells) (human) (UniProt O43809); assay: as above
[4] = biological target: NUDT21 K56R mutant (expressed in KYSE30 cells) (human) (UniProt O43809); assay: as above
[5] = biological target: WT NUDT21 (Flag-tagged, expressed in KYSE30 cells) (human) (UniProt O43809); assay: as above
[6] = biological target: lactylated NUDT21 (purified from cells treated with L-lactate) (human) (UniProt O43809); assay: pull-down; in vitro pull-down of CPSF6 with NUDT21 purified from cells pre-treated with oxamate and then treated with L-lactate or acetate; both purified
[7] = biological target: NUDT21 (in 293T cells, Co-IP) (human) (UniProt O43809); assay: co-IP; Co-IP in 293T cells; IP lysis buffer, beads overnight at 4 °C, Western blot

binding [1]: binds
binding [2]: binds
binding [3]: binds
binding [4]: binds
binding [5]: binds
Substance: CPSF6 (in KYSE30 cells) (from UniProt Q16630 1-551)

binding [6]: binds
Substance: CPSF6 (purified recombinant protein) (from UniProt Q16630 1-551)

binding [7]: binds
Substance: HDAC2 (in 293T cells, Co-IP) (from UniProt Q92769 1-488) (enzyme)
